Literature values in US5728885A, “Method of preparing the enantiomers of O-dimethyltramadol” (priority 1996, dated 1998).

Details: J. Pharmacol. Exptl. Ther. 267, 331 (1993); cited from earlier work

Compound: COc1cccc([C@@]2(O)CCCC[C@@H]2CN(C)C)c1.Cl (racemic) [racemic tramadol hydrochloride, (1RS, 2RS)-2-dimethylaminomethyl-1-(3-methoxy-phenyl)-cyclohexanol hydrochloride, reference compound]
- inhibition of pain: strong inhibitor of pain
